Test results from article PMC5675994.
Results are given in words; binding and its absence hold for the method and conditions named. In cells and extracts the contact can be indirect. Some entries that bind do so weakly or less than the wild type. Sequences can lack the tags named with a protein.

Molecular target: T1, ∆36Nfs1-His6 (S. cerevisiae) (UniProt P25374)
T1 sequence: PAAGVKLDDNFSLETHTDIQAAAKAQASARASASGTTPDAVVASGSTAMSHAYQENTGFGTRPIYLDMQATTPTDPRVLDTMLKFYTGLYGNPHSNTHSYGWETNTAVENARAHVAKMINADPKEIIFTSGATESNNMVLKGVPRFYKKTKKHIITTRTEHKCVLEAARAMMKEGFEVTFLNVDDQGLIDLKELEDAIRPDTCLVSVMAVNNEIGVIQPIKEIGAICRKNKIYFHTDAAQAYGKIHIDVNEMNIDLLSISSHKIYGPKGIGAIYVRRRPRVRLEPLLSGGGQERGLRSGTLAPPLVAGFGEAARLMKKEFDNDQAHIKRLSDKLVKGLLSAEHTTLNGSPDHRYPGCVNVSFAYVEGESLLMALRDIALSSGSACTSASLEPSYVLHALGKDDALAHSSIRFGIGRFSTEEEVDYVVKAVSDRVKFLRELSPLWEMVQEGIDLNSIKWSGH
Assay: pull-down; co-purification: ∆36Nfs1-His6 and Isd11 co-expressed in E. coli from one plasmid, recovered under native conditions on Ni-NTA superflow agarose; elution 50 mM TrisCl pH 7.5, 0.15 M NaCl, 10% glycerol, 400 mM imidazole

binding: binds
B1: Isd11 (protein, UniProt Q6Q560 1-94)
chain: MPGFTAPTRRQVLSLYKEFIKNANQFNNYNFREYFLSKTRTTFRKNMNQQDPKVLMNLFKEAKNDLGVLKRQSVISQMYTFDRLVVEPLQGRKH
